According to publication PMC6600216:
These are yes or no findings as the source states them, for the method shown. In cells and extracts the contact can be indirect. Some results given as binding are weak or reduced against the parent protein; the word gives no strength. For part of these data: Where a sequence is shown, tags or fusion partners need not be part of it.

Columns and labels:
[1] = target: T1, SHIP2, endogenous human (human (endogenous in HepG2, SK-Hep-1, Huh7, HEK293T)) (UniProt O15357); experiment: co-IP; lysates (1 mg total protein) of HepG2, SK-Hep-1 and Huh7 cells, also serum-starved and stimulated with insulin for the indicated times; anti-IRTKS or anti-SHIP2 antibody (1 ug) at 4 °C overnight, protein-G beads 4 h; IgG as negative control; immunoblot
T1 sequence: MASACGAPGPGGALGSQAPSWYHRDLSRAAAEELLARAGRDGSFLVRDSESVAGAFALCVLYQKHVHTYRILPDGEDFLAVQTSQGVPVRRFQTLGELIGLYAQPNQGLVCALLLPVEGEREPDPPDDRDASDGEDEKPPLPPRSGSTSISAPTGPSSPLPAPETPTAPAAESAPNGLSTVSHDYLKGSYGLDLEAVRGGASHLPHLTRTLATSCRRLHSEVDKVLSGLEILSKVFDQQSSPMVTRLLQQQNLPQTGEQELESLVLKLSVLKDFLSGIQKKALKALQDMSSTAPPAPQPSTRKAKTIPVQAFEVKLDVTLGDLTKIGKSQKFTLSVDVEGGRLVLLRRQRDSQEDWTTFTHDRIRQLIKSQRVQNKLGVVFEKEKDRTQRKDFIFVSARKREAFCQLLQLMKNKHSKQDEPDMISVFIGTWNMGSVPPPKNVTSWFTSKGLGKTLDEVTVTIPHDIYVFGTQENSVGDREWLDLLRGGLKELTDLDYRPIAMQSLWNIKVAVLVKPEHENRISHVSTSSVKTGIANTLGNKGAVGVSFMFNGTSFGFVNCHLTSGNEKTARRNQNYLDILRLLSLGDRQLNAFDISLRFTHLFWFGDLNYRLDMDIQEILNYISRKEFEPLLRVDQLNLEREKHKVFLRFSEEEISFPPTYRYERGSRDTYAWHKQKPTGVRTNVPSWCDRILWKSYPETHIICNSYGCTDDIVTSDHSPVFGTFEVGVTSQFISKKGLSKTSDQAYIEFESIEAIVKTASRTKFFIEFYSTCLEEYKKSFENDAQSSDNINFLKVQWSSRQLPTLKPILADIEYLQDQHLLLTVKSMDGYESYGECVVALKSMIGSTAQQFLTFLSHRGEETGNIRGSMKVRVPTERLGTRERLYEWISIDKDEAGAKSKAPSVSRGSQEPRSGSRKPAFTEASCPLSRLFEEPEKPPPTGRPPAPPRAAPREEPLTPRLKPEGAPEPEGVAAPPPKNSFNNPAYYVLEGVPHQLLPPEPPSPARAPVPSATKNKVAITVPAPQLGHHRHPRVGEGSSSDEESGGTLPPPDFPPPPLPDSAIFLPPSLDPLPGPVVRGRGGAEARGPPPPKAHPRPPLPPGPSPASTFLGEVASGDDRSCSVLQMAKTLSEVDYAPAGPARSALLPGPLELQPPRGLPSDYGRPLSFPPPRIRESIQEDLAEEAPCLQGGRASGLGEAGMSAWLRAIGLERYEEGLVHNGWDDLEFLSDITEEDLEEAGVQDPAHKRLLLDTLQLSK

[2] = target: T2, Flag-tagged full-length SHIP2 (human) (UniProt O15357); experiment: pull-down; Flag-tagged full-length or truncated SHIP2 overexpressed in HEK293T cells and endogenous IRTKS; the text says the Flag proteins pull down IRTKS, the legend that they were pulled down by endogenous IRTKS
T2 sequence: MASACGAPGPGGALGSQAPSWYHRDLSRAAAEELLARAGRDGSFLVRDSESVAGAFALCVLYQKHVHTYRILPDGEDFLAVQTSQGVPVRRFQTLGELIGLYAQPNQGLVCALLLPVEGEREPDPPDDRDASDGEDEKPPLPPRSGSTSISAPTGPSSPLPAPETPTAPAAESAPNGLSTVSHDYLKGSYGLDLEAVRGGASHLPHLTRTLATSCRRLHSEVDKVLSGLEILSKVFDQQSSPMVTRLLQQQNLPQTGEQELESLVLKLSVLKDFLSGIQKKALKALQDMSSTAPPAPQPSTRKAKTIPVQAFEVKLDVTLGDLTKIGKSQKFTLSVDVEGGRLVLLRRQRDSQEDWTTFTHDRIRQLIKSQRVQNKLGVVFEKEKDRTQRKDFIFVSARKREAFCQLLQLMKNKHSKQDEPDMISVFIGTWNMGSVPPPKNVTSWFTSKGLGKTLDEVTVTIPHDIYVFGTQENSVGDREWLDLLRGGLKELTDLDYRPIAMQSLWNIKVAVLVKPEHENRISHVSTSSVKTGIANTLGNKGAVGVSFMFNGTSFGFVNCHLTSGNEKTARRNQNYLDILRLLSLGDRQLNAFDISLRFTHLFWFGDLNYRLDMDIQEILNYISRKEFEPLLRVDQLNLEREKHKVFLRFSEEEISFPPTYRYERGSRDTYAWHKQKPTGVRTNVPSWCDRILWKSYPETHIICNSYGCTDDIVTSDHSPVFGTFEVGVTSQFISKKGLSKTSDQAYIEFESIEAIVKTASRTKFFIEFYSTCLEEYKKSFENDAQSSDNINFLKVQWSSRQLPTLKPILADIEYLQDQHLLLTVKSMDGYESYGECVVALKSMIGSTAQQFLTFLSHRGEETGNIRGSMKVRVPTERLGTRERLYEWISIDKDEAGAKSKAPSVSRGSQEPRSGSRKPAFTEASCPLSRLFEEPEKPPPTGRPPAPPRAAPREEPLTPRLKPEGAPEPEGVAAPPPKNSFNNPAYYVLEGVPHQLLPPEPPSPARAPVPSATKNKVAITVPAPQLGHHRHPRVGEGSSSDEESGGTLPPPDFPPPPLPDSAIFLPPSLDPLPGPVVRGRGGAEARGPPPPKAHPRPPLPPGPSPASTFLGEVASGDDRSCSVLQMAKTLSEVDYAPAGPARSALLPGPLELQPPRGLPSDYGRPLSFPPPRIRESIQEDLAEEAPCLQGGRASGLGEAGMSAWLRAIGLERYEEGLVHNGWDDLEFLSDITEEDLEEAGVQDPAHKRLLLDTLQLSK

[3] = target: T3, Flag-tagged fragment of SHIP2 (residues 424–727) with the IPP5c domain (human) (UniProt O15357); experiment: as above
T3 sequence: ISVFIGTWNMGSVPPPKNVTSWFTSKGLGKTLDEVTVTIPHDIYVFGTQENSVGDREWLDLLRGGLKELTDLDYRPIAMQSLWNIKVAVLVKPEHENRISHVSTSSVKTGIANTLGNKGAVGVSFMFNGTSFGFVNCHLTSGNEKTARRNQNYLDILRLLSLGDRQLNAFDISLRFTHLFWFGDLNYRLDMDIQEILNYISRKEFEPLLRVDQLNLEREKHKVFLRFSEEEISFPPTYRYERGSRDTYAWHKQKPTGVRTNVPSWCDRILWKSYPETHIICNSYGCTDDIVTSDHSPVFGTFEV

Measured: binding

B1: IRTKS, endogenous human (protein, UniProt Q9UHR4 1-511)
chain: MSRGPEEVNRLTESTYRNVMEQFNPGLRNLINLGKNYEKAVNAMILAGKAYYDGVAKIGEIATGSPVSTELGHVLIEISSTHKKLNESLDENFKKFHKEIIHELEKKIELDVKYMNATLKRYQTEHKNKLESLEKSQAELKKIRRKSQGSRNALKYEHKEIEYVETVTSRQSEIQKFIADGCKEALLEEKRRFCFLVDKHCGFANHIHYYHLQSAELLNSKLPRWQETCVDAIKVPEKIMNMIEEIKTPASTPVSGTPQASPMIERSNVVRKDYDTLSKCSPKMPPAPSGRAYTSPLIDMFNNPATAAPNSQRVNNSTGTSEDPSLQRSVSVATGLNMMKKQKVKTIFPHTAGSNKTLLSFAQGDVITLLIPEEKDGWLYGEHDVSKARGWFPSSYTKLLEENETEAVTVPTPSPTPVRSISTVNLSENSSVVIPPPDYLECLSMGAAADRRADSARTTSTFKAPASKPETAAPNDANGTAKPPFLSGENPFATVKLRPTVTNDRSAPIIR
binds: [1] | [2] | [3]
